Test results published in publication PMC6352565.
No constants are given. Whether binding was seen depends on the method and setting. In cells and extracts the contact can be indirect.

The chains behind the UniProt entries cited, without tags or fusion partners.
UniProt Q9R1E0: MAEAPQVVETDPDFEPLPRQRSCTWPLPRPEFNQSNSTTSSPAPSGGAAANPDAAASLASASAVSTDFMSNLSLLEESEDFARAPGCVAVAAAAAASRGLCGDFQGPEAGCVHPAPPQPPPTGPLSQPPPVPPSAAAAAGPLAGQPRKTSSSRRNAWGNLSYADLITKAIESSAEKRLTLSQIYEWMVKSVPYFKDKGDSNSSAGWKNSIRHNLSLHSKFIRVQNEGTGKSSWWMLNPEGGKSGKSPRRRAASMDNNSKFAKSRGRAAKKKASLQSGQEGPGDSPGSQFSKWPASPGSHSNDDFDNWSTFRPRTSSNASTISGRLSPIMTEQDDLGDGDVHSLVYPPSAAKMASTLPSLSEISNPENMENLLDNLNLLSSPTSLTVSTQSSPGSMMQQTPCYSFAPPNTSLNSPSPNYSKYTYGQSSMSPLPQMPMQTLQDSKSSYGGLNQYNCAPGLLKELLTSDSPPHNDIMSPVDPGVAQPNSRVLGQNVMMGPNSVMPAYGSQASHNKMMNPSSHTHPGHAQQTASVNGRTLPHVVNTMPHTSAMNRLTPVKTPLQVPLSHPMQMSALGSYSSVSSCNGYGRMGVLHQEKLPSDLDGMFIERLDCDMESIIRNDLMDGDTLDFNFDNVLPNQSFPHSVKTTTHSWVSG
UniProt Q9WUK6: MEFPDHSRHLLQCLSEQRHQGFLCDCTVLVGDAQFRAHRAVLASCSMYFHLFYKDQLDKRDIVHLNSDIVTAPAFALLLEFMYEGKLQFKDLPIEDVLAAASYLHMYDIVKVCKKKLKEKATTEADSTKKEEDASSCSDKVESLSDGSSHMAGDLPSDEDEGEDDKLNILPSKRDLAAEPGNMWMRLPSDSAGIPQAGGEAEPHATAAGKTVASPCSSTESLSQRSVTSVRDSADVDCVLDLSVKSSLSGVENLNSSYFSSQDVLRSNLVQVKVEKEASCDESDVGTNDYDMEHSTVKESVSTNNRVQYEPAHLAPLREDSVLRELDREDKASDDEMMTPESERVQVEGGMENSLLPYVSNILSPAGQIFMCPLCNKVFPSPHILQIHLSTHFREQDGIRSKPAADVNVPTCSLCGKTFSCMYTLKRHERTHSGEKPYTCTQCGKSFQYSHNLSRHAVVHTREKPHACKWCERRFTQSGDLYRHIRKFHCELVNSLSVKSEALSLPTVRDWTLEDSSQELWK

Biological target: cMyc-tagged wild-type Foxo1 (WTFoxo1) (UniProt Q9R1E0)
Assay: co-IP; HEK293 cells co-transfected with cMyc-tagged WTFoxo1 or CNFoxo1 and FLAG-tagged Zfp238, cultured in the presence of serum, harvested 48 h after transfection; reciprocal: IP anti-FLAG with blot anti-cMyc, and IP anti-cMyc with blot anti-FLAG; normal mouse IgG as control

FLAG-tagged Zfp238 (from UniProt Q9WUK6 1-522)
binding: no binding
